In this data set the test system is Tubulin (several forms). The experiment in a line: Affinity capture on monomeric avidin, ALL cell fractions, MS peptide hits. It is filed as binding.

As to `N#Cc1ccc2c(c1)CN(S(=O)(=O)CCCNC(=O)CCCCCNC(=O)CCCC[C@H]1SC[C@H]3NC(=O)N[C@H]31)CCN2Cc1cnc[nH]1` [BMS-236724], the “Peptide Hits Exp 1” value is given as 10 and the “Peptide Hits Exp 2” value is 1.

Source of the values: patent US20100233172A1, “METHODS OF INHIBITING QUIESCENT TUMOR PROLIFERATION” (Bristol-Myers Squibb Company, priority 2008, published 2010).
